Each number is a percent effect as filed.
The controls that fix the scale are not given in the record; negative values are as filed.
Compounds were drawn at random from those tested, without regard to their results.
Two or more numbers in one place are separate tests of the same structure; such repeats can differ widely.

Mtb cholesterol medium: 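Whole-cell growth test on Mycobacterium tuberculosis, read after 4 days in a medium based on cholesterol and the lipid DPPC; the read-out is not stated. Compounds at 50 µM. The record gives no direction; compounds that gave an IC50 in retests scored well above the rest, so higher reads as more growth inhibition. Size under these conditions: about 69,000 compounds, about 370 of them at 50% or above in at least one test.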
Mtb glucose medium: 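Whole-cell growth test on Mycobacterium tuberculosis, read after 3 days in glucose-containing 7H9 medium; the read-out is not stated. Compounds at 50 µM. Direction is inferred from retests: higher values go with more growth inhibition. Size under these conditions: about 69,000 compounds, about 760 of them at 50% or above in at least one test.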

SMILES | Mtb cholesterol medium | Mtb glucose medium
CC1CCCN(Cc2ccc(OCc3nccn3C)cc2)C1 (centres unmarked) | -23.35 | -0.3909
O=C(O)C(F)(F)F.[H][C@@]12OCCN(c3ccc(C)cc3)[C@@]1([H])CC[C@H]2OCC(=O)N1CCCC1 | 3.412 | 1.226 and 3.439
CCN1CCCC(O)(CNCc2ccncc2)C1 (centres unmarked) | 22.41 | -15.56
CCS(=O)(=O)CC(=O)NC1CCc2nccn2C1 (centres unmarked) | -0.6343 and -12.72 | -7.16
Cc1csc(C2CCCN(C(=O)c3c(C)nn4cccnc34)C2)n1 (centres unmarked) | -8.182 | 3.914
FC(F)(F)COc1cccc(-c2nc3c([nH]2)CCNC3)c1 | -19.04 | -25.94
Cc1cccc(-n2cnc(Cl)c2CO)c1 | -16.6 and -12.1 | -12.75
O=C(O)C(F)(F)F.[H][C@]12CCN(C(=O)c3ccncc3F)[C@@]1([H])CC[C@@H](COCC(C)C)O2 | 24.77 | 11.85
Cn1nnnc1SC1CCCN(c2cccc(F)c2)C1=O (centres unmarked) | -17.85 | -13.98
O=C1COC2(CCN(S(=O)(=O)C3CC3)CC2)CN1c1ccsc1 | -16.78 | 11.73
CCCNC(=O)C1CCCN(Cc2ccc(-n3cncn3)c(C)c2)C1 (centres unmarked) | 2.648 | 2.436 and 0.1987
NS(=O)(=O)c1cnn(-c2ccc(NC(=O)CC3CCCC3)cn2)c1 | 0.8753 | -14.24 and 30.59
Cc1cc(CN2CCN(C(=O)Cc3ccccc3F)CC2)on1 | 5.238 | 23.28 and -0.6392
[H][C@@]12C[C@@H](C)O[C@]1([H])CN(C(=O)c1ccccc1C)C2 | -9.657 | -0.748 and -5.258
CCN1CCN(c2ccc(CNC(=O)c3cnn(C)c3C)cn2)CC1 | 8.049 | 1.473
CCS(=O)(=O)N1CCOC2(COCCN(c3nccs3)C2)C1 (centres unmarked) | -12.66 | -3.687
[H][C@@]12OCCC[C@]1([H])N(C(=O)c1ccsc1)C[C@@H]2N1CCOCC1 | -3.578 | 25.84
Cc1cnn(C2CCCN(C(=O)c3cn(-c4ccccc4)nn3)C2)c1 (centres unmarked) | -16.27 | 17.99
CCc1nccn1-c1cncc(C2CCCN2Cc2cccnc2)n1 (centres unmarked) | -4.596 | 15.33
c1cc(N2CCSCC2)ccc1CNc1cncc2nnnn12 | -25.04 | -9.208 and -44.78
NC(=O)NC(=O)CCN1CCN(c2nccs2)CC1 | -17.45 | 57.79
NS(=O)(=O)CCN1CCN(c2cc(F)ccc2F)CC1 | -5.768 | -36.49 and -11.24
Cc1ccc(SCCN(C)C(=O)c2cn([C@H]3CC[C@@H](N)CC3)nn2)cc1 | -16.91 | -46.73
CC(C)c1cc(Br)ccc1NC(=O)NCC(O)CO (centres unmarked) | -10.3 and -8.032 | 34.5
CN(Cc1cc(-c2ccccc2)no1)CC1CCCN1c1cccnn1 (centres unmarked) | 12.79 | 18.94
CC(C)Cc1ncc(CNc2cnccc2CO)s1 | -16.87 | -20.22
O[C@@H]1C[C@@H](c2nc(-c3ccccc3)no2)N(Cc2cccnc2)C1 | 0.7839 | -2.713 and 10.34
[H][C@]12CC[C@]([H])(CN(Cc3ccccc3C)C1)N(CC1CCC1)C2=O | 3.939 and -10.23 | -5.005
[H][C@@]12C[C@H](C(=O)NCC3CC3)[C@@]([H])(CN(C(=O)NCc3ccccc3)C1)O2 | -5.294 | 2.12
O=C(O)C(F)(F)F.O=C(c1ccc[nH]1)N1CCc2onc(COc3cccnc3)c2C1 | 1.335 and -4.932 | -39.67
CCN(C)C[C@@H]1CN(Cc2cccc(O)c2)C[C@@H]1CO | -11.41 | -30.9 and 1.067
CCOCC(=O)N1CCC(c2cc3ncccc3c(O)n2)CC1 | 4.326 | 3.557
CN(C)c1cc(CNC(=O)c2cc(F)ccc2F)ccn1 | -4.422 | -12.33
CC(C)(C)C(Cn1cccn1)NC(=O)c1ccco1 (centres unmarked) | 5.537 | 23.31
COc1ccc(Cl)cc1CS(=O)(=O)Cc1nc(C)no1 | -25.69 | -25.95
Cc1ccc(CN2Cc3ccnn3CC(COCc3cccnc3)C2)o1 (centres unmarked) | -5.026 and -20.73 | -0.1865 and -12.81
CS(=O)(=O)c1cccc(C(N)c2ccc(F)cc2)c1 (centres unmarked) | -23.23 | -7.949
CN(C)c1nccnc1C1CCN(c2cnccn2)CC1 | 4.692 and 11.85 | 14.04
Cc1cc(C(=O)NC2CCN(CC(N)=O)CC2)nn1C(C)(C)C | -26.36 | -23.94
CC(Cn1ccnc1)NC(=O)C1(c2ccc(F)cc2)CCCC1 (centres unmarked) | -26.59 | -26.53 and -6.737
[H][C@@]12CN(CCOC)C[C@]1([H])[C@H](OC)CCN2C(=O)CCc1ccccc1 | -2.624 | 7.863
Cc1ccsc1C(Cc1ccccc1)NC(=O)CSCC(N)=O (centres unmarked) | -7.925 | 11.64
Cc1cccc(CN2CCC3(CC2)CN(c2cnn(C)c2)C(=O)CO3)n1.O=C(O)C(F)(F)F | -4.491 | -11.55
Cc1nn(-c2ccccc2)cc1C(=O)N1CCCN2CCCC2C1 (centres unmarked) | 4.567 | 8.757
Cn1cnc2c1CCN(Cc1csc(-c3ccccc3F)n1)C2 | 2.059 | 9.05
CCNC(=O)N1CCC(NC(=O)NCCc2cccc(C)c2)C1 (centres unmarked) | -7.651 | -2.195
O=C(O)C(F)(F)F.O=C(O)C(F)(F)F.O=C(O)CN1CCC(F)(F)C2(CCN(c3ccccn3)C2)C1 (centres unmarked) | -19.69 | -3 and -22.92
[H][C@]12CCCN(S(=O)(=O)c3ccc(OC)cc3)[C@@]1([H])CN(C(=O)C1CC1)C2 | 3.036 and -44.65 | -7.003
CC(C)c1nccn1CCC(=O)N1CCCC1c1cccn1C (centres unmarked) | -6.06 | 26.54
Cc1cc(C(F)(F)F)cc(=O)n1CCn1cc(Cl)cn1 | 19.58 | 0.2197 and -16.56
Cc1c(C2CCCN(C(=O)c3cccnc3)C2)n2c(nc1=O)CCC2 (centres unmarked) | -5.183 | -3.374
CCc1nncn1CCNC(=O)N1CCCC(Cc2nccn2C)C1 (centres unmarked) | -29.7 | -23.96
Cc1cnc(NC2CCc3c(ccc(=O)n3C)C2)nc1 (centres unmarked) | 21.18 | 2.34
Cc1c(C(=O)N2CCCC(O)(CN(C)C)CC2)c2cc(O)ccc2n1C (centres unmarked) | -22.36 and -11.26 | -42.55 and -7.63
COc1ccccc1N1CCN(C(=O)c2ccnc(N(C)C)c2)CC1 | -12.7 | -16.21
Cc1ccc(S(=O)(=O)N(C)CC(C)O)c(F)c1 (centres unmarked) | -4.116 | -3.358 and -2.002
CS(=O)(=O)CCCNC(=O)C1(c2cccc(Cl)c2)CC1 | 28.95 | 3.741 and 16.57
CC(C)(C)CNC(=O)CNC(=O)C1CC1 | 16.7 | -0.6943 and 2.452
COCCN1CCCC12CCN(c1ncccn1)CC2.O=C(O)C(F)(F)F | -12.99 and 10.91 | -5.76 and 21.46
COc1ccc(CC(=O)N2CCCC(c3nncn3C)C2)cc1 (centres unmarked) | 3.478 | -10.53
CNC(=O)C(C)(C)N1CCC[C@H]1C(=O)NCCN(C)C.Cl | -14.13 | -6.181 and -1.891
CCN(CC)C(C)CNC(=O)c1cccnc1Oc1cccnc1 (centres unmarked) | -1.026 and 0.736 | -17.9
CN(C)CCN1CCOCC2(CCCN(C(=O)c3ccoc3)C2)C1.O=C(O)C(F)(F)F.O=C(O)C(F)(F)F (centres unmarked) | -21.25 | -32.71 and -5.12
COc1ccccc1OC1CCN(C(=O)CCCN2CCOCC2)CC1 | -0.08938 | 4.563 and 15.51
CN(C)C(=O)N1CCC2(CCCN(Cc3cnn(C)c3)C2)C1.O=C(O)C(F)(F)F (centres unmarked) | -11.87 | -14.66
O=C(O)C(F)(F)F.[H][C@]12CCN(Cc3ccccc3)CC[C@@]1([H])S(=O)(=O)NC2 | 19.91 | 22.18 and -4.764
COc1ccc(C2CCCN2C(=O)c2ccnc(NC3CC3)c2)cc1 (centres unmarked) | -30.49 | 2.543
CCN(CC)C(=O)[C@@H]1C[C@@H](N)CN1c1nc(N(C)C)nc(C)c1C | 14.22 | 28.76
Cc1cc(NCCO)nc(N2CCC(Cc3ccccc3)CC2)c1C#N.O=C(O)C(=O)O | 15.74 | 7.291
O=C(c1cn(-c2ccc(F)cc2)nn1)N1CCCC(n2cccn2)C1 (centres unmarked) | 5.039 | 15.29
CC(C)(C)c1ncc(CNc2ccccc2Cn2cncn2)s1 | 12.35 | 2.975
N#Cc1ccc(C(=O)O)nc1/C=C/c1cccc(F)c1 | 8.484 | 1.71
Cc1nc(C)n(CC2CCCCN2CC(=O)Nc2c(C)n[nH]c2C)n1 (centres unmarked) | 14.61 | 29.87
Cc1nc(C(C)C)sc1C(=O)N(C)Cc1cnn(C)c1 | -19.01 | 19.48

Some entries from above, unchanged:

With [H][C@]12CCCN(S(=O)(=O)c3ccc(OC)cc3)[C@@]1([H])CN(C(=O)C1CC1)C2 the screen gave Mtb cholesterol medium: 3.036% and -44.65%; Mtb glucose medium: -7.003%.
With O=C(O)C(F)(F)F.[H][C@@]12OCCN(c3ccc(C)cc3)[C@@]1([H])CC[C@H]2OCC(=O)N1CCCC1 the screen gave Mtb cholesterol medium: 3.412%; Mtb glucose medium: 1.226% and 3.439%.
With Cn1cnc2c1CCN(Cc1csc(-c3ccccc3F)n1)C2 the screen gave Mtb cholesterol medium: 2.059%; Mtb glucose medium: 9.05%.
With FC(F)(F)COc1cccc(-c2nc3c([nH]2)CCNC3)c1 the screen gave Mtb cholesterol medium: -19.04%; Mtb glucose medium: -25.94%.
With Cc1cc(C(=O)NC2CCN(CC(N)=O)CC2)nn1C(C)(C)C the screen gave Mtb cholesterol medium: -26.36%; Mtb glucose medium: -23.94%.

Source: ChEMBL document CHEMBL3988442, “University of Dundee, Small-Polar-MMV Screening Library” (2021).